Measured values reported in PMC5558966.
Results are given in words; binding and its absence hold for the method and conditions named. In cells and extracts the contact can be indirect. A yes stands for co-enrichment or nearness to the bait. Other partners may have been found.

T1: Imp4-FTpA (S. cerevisiae) (UniProt P53941)
T1 sequence: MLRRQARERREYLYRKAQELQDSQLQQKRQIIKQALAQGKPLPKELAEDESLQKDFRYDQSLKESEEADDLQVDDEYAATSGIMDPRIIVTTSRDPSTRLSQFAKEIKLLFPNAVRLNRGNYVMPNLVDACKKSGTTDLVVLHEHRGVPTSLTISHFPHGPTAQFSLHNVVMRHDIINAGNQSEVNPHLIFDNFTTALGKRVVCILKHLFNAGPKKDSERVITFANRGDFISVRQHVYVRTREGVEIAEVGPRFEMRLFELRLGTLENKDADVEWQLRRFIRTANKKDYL

B1: Mpp10 (yeast, endogenous) (protein, UniProt P47083 1-593)
chain: MSELFGVLKSNAGRIILKDPSATSKDVKAYIDSVINTCKNGSITKKAELDEITVDGLDANQVWWQVKLVLDSIDGDLIQGIQELKDVVTPSHNLSDGSTLNSSSGEESELEEAESVFKEKQMLSADVSEIEEQSNDSLSENDEEPSMDDEKTSAEAAREEFAEEKRISSGQDERHSSPDPYGINDKFFDLEKFNRDTLAAEDSNEASEGSEDEDIDYFQDMPSDDEEEEAIYYEDFFDKPTKEPVKKHSDVKDPKEDEELDEEEHDSAMDKVKLDLFADEEDEPNAEGVGEASDKNLSSFEKQQIEIRKQIEQLENEAVAEKKWSLKGEVKAKDRPEDALLTEELEFDRTAKPVPVITSEVTESLEDMIRRRIQDSNFDDLQRRTLLDITRKSQRPQFELSDVKSSKSLAEIYEDDYTRAEDESALSEELQKAHSEISELYANLVYKLDVLSSVHFVPKPASTSLEIRVETPTISMEDAQPLYMSNASSLAPQEIYNVGKAEKDGEIRLKNGVAMSKEELTREDKNRLRRALKRKRSKANLPNVNKRSKRNDVVDTLSKAKNITVINQKGEKKDVSGKTKKSRSGPDSTNIKL
B2: Imp3 (yeast, endogenous) (protein, UniProt P32899 1-183)
chain: MVRKLKHHEQKLLKKVDFLEWKQDQGHRDTQVMRTYHIQNREDYHKYNRICGDIRRLANKLSLLPPTDPFRRKHEQLLLDKLYAMGVLTTKSKISDLENKVTVSAICRRRLPVIMHRLKMAETIQDAVKFIEQGHVRVGPNLINDPAYLVTRNMEDYVTWVDNSKIKKTLLRYRNQIDDFDFS
B3: Rps5 (yeast, endogenous) (protein, UniProt P26783 1-225)
chain: MSDTEAPVEVQEDFEVVEEFTPVVLATPIPEEVQQAQTEIKLFNKWSFEEVEVKDASLVDYVQVRQPIFVAHTAGRYANKRFRKAQCPIIERLTNSLMMNGRNNGKKLKAVRIIKHTLDIINVLTDQNPIQVVVDAITNTGPREDTTRVGGGGAARRQAVDVSPLRRVNQAIALLTIGAREAAFRNIKTIAETLAEELINAAKGSSTSYAIKKKDELERVAKSNR

Molecular target: T1, Imp4-FTpA (S. cerevisiae)
Test: affinity purification with mass spectrometry; tandem affinity purification via Imp4-FTpA from S. cerevisiae (IgG Sepharose, TEV, anti-Flag agarose; TAP buffer 50 mM Tris-HCl pH 7.5, 150 mM NaCl), then 15–40% sucrose gradient; a top fraction on SDS-PAGE, Coomassie, bands identified by mass spectrometry

binding	Binder
binds	B1
binds	B2
binds	B3
